PubChem BioAssay AID1159578, Peter MacCallum Cancer Centre, 2015

Purpose: 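Genome-wide hunt for genes controlling movement of lymphatic endothelial cells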 (primary screen)
System: human lymphatic endothelial cells
Reagents: siRNA pool against human genes, 40 nM
Timing: 48 h after transfection
Detection: 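Cells stained with dye and imaged after a scratch; covered wound area and nuclei counted, duplicates averaged, migration set against mock wells and turned into a robust z-score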
Direction: migration robust z-score: higher = faster migration into the scratch; nuclei per well: higher = more cells in the well
Rule for the call: 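Migration changed when robust z exceeds 2 or falls below -2 and mean nuclei number is at least 3300; otherwise not called changed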
Calls: active = migration changed; inactive = no migration change, or too few cells
The whole screen tested about 18,000 reagents; this is a part drawn at random. Over the whole deposit, about 1,030 (5.7%) got an active call. 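Inactive calls also include pools with fewer than 3300 nuclei, whose migration was not assessed.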 Raw values are not corrected between plates. Not all columns of the deposit are shown. No sequences are given here.

gene knocked down | migration robust z-score | nuclei per well, duplicate mean | call
CNPY3 (canopy FGF signaling regulator 3) | -0.52 | 5433 | inactive
RNF139 (ring finger protein 139) | 1.19 | 5756 | inactive
PEX11A (peroxisomal biogenesis factor 11 alpha) | 0.42 | 4276 | inactive
AP2M1 (adaptor related protein complex 2 subunit mu 1) | -0.72 | 5122 | inactive
DLGAP1 (DLG associated protein 1) | -0.44 | 5279 | inactive
STAC (SH3 and cysteine rich domain) | 0.96 | 5864 | inactive
SCYL3 (SCY1 like pseudokinase 3) | -1.46 | 3989 | inactive
TMOD1 (tropomodulin 1) | -1.71 | 3296 | inactive
GAS2L2 (growth arrest specific 2 like 2) | -2.12 | 6308 | active
CARMIL2 (capping protein regulator and myosin 1 linker 2) | -1.08 | 5498 | inactive
PAPSS1 (3'-phosphoadenosine 5'-phosphosulfate synthase 1) | 0.13 | 4679 | inactive
OR51G2 (olfactory receptor family 51 subfamily G member 2) | 0.84 | 5676 | inactive
ATG2A (autophagy related 2A) | -0.16 | 5760 | inactive
PCDHGA6 (protocadherin gamma subfamily A, 6) | -3.54 | 4376 | active
RTF2 (replication termination factor 2) | 1.72 | 5774 | inactive
NEUROD2 (neuronal differentiation 2) | 0.36 | 6325 | inactive
FOXP4 (forkhead box P4) | -0.29 | 5298 | inactive
RNF152 (ring finger protein 152) | 0.2 | 6120 | inactive
CA13 (carbonic anhydrase 13) | 0.11 | 4840 | inactive
PBRM1 (polybromo 1) | 0.16 | 4854 | inactive
AFP (alpha fetoprotein) | -0.68 | 4390 | inactive
IARS1 (isoleucyl-tRNA synthetase 1) | 1.22 | 5763 | inactive
RABGEF1 (RAB guanine nucleotide exchange factor 1) | -0.08 | 5745 | inactive

Records above whose target name begins with C or c:
gene knocked down | migration robust z-score | nuclei per well, duplicate mean | call
CNPY3 (canopy FGF signaling regulator 3) | -0.52 | 5433 | inactive
CARMIL2 (capping protein regulator and myosin 1 linker 2) | -1.08 | 5498 | inactive
CA13 (carbonic anhydrase 13) | 0.11 | 4840 | inactive
